Reference: patent US6111065A (Centocor, Inc., priority 1994, dated 2000)

Assay: solid-phase peptide synthesis
Settings: whole synthesis

PEPTIDE1{A.E.N.W.A.D.N.E.P.N.N.[am]}$$$$V2.0
crude mass (scale 0.54 mmol): 0.55 g

Threonyl-asparaginyl-glutaryl-alanyl-glutamyl-asparaginyl-tryptophyl-alanyl-aspartyl-asparaginyl-glutamyl-prolyl-asparaginyl-asparagine amide (Sequence ID No. 13)
crude mass (scale 0.50 mmol): 0.44 g | isolated mass (scale 0.50 mmol): 33 mg

Acetyl-threonyl-asparaginyl-glutamyl-alanyl-glutamyl-asparaginyl-tryptophyl-alanyl-aspartyl-asparaginyl-glutamyl-proline amide (Sequence ID No. 11)
crude mass (scale 0.50 mmol): 0.774 g | isolated mass (scale 0.50 mmol): 6 mg

Some peptides are written in HELM: one residue between dots, names in brackets for other building blocks, links after the first $.
